This passage reports binding results from doi:10.1101/2025.02.13.635953.

By UniProt entry, the sequences of proteins in these tests, tags left out. Where a name states a change or a piece, a line headed by the entry shows the natural chain unless it says otherwise.
UniProt Q8C0Y1: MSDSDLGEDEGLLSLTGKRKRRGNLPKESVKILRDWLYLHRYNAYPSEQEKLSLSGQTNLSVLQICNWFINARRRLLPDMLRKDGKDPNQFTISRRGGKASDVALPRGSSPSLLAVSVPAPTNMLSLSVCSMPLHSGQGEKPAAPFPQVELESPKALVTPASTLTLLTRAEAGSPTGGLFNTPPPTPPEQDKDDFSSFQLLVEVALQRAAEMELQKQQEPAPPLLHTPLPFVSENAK
UniProt O54962: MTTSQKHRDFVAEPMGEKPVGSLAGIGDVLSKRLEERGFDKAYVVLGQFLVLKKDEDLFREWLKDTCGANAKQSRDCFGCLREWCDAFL
UniProt O09106: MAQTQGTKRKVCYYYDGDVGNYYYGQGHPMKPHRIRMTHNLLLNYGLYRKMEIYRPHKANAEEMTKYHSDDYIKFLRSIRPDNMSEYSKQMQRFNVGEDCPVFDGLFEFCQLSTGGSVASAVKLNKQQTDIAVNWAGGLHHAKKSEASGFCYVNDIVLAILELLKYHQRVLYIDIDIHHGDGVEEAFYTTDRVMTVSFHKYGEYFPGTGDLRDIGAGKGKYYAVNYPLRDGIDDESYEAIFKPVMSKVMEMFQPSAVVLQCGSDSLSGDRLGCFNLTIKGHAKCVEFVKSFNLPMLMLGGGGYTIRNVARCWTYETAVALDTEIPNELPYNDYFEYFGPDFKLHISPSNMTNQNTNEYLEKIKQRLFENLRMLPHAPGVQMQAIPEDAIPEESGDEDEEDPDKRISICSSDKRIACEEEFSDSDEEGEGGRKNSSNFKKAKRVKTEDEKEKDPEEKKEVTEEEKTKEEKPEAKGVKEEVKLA
UniProt P70288: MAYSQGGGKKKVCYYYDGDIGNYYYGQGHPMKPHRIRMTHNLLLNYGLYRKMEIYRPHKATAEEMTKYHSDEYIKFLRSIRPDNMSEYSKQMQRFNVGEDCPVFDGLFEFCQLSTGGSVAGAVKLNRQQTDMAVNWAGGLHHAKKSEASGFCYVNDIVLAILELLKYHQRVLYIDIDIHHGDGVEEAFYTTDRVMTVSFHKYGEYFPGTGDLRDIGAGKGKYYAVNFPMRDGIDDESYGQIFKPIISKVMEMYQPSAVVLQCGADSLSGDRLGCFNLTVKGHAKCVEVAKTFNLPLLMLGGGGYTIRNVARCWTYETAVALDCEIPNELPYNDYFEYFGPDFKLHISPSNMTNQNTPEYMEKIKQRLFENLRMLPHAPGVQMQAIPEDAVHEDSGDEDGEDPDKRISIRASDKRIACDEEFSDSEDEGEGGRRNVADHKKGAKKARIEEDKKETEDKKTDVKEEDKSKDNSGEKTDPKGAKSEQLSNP
UniProt P11103: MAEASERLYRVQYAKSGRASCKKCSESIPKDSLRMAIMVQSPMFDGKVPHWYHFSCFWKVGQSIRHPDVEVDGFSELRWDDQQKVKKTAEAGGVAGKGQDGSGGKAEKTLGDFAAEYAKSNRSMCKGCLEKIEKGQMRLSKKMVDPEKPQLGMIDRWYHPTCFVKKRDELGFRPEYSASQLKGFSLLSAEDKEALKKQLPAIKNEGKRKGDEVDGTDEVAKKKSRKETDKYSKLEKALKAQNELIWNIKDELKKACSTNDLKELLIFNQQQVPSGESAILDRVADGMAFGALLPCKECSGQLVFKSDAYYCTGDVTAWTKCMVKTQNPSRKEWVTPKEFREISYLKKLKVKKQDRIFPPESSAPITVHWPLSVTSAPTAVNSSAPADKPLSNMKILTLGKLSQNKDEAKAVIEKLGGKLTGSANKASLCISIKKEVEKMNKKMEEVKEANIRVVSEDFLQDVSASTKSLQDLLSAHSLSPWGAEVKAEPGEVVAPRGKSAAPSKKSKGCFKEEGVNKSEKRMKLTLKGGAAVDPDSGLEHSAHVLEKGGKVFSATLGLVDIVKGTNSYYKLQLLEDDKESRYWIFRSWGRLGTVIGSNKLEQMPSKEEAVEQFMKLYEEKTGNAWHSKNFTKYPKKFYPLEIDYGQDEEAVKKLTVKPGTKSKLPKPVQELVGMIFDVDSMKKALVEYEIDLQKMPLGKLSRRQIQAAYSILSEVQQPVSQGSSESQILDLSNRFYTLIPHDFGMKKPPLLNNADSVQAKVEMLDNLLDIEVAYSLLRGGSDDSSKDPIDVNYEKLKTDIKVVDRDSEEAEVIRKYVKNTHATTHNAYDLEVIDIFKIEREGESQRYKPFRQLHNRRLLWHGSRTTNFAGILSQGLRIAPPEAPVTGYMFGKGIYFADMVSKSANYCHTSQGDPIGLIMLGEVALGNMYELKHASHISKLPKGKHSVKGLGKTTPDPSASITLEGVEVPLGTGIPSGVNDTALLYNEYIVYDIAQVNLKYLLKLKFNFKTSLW
UniProt Q8VEE4: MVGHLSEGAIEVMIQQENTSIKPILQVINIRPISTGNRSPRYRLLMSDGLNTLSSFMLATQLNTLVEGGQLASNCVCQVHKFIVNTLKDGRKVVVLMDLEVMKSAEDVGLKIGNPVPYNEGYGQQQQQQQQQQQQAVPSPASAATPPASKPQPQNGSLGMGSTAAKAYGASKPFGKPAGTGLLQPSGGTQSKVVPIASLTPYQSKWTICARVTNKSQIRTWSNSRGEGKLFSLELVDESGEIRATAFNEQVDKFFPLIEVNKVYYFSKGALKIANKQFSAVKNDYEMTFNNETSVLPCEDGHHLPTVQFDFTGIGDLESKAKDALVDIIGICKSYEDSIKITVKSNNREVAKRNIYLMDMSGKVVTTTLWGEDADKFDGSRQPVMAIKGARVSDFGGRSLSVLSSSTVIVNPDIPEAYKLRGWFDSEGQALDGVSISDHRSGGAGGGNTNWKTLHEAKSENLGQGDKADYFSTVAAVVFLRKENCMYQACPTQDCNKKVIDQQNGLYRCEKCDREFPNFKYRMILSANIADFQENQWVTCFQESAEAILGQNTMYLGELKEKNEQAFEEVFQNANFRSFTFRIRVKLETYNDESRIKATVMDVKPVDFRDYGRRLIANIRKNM
UniProt Q62193: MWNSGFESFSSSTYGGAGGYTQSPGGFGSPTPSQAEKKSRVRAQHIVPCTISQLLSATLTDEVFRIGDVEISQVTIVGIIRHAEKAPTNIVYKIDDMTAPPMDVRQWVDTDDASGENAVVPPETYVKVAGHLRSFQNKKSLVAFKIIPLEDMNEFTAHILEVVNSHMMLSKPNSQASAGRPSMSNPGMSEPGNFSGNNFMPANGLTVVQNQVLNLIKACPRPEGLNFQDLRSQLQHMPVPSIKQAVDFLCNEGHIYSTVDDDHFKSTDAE
UniProt Q9CQ71: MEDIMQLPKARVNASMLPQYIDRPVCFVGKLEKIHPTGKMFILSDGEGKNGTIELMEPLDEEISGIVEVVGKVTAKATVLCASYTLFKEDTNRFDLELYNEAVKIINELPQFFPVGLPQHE

Sequences and labels used below:
B1: ARID4B (protein, UniProt A2CG63 1-1314)
chain: MKALDEPPYLTVGTDVSAKYRGAFCEAKIKTAKRLVKVKVTFRHDSSTVEVQDDHIKGPLKVGAIVEVKNLDGAYQEAVINKLTDASWYTVVFDDGDEKTLRRSSLCLKGERHFAESETLDQLPLTNPEHFGTPVIGKKTNRGRRSNHIPEEESSSSSSDDDEEERKQTDELLGKVVCVDYVSLEKKKAMWFPALVVCPDCSDEIAVKKDNILVRSFKDGKFTSVPRKDVHEITSDTVPKPDAVLKQAFDQALEFHKSRAIPANWKTELKEDSSSSEAEEEEEEEDDEKEKEDNSSEEEEEIEPFPEERENFLQQLYKFMEDRGTPINKRPVLGYRNLNLFKLFRLVHKLGGFDNIESGAVWKQVYQDLGIPVLNSAAGYNVKCAYKKYLYGFEEYCRSANIDFQMALPEKVLNKPCKDCENKEVKVKEESETEIKEVNVEDSKNVMPKEETPAEDESERKENIKPSLGSKKSLLECIPAQSDEEKEAHITKLEENENLEDKDGGRARTEEAFSTEVDGEEEQARSGDETNKEEDEDDEEIEEEEEEDEEEDEDEDDDDNNEEEEFECYPPGMKVQVRYGRGKNQKMYEASIKDSDVEGGEALYLVHYCGWNVRYDEWIKADKIVRPADKNVPKIKHRKKIKNKLDKEKDRDEKYSPKNCKLRRLSKSPFQSNPSPEMVSKLDLADAKNSDTAHIKSIEITSILNGLQASESSAEDSEQEDERCTQDVDNIGKDESKVEHSTHSRNELISKEEQSSPSLLEENKVHTDLVIAKTVSKSPERLRKDMEAISEDTDFEEEDEITKKRKDVKKDTTDKALKPQTKRGKRRYCSADECLQTGSPGKKEDRTKSKEPLCTENSSNSSSDEDEEEKSKAKMTPTKKYNGLEEKRKSLRTTSFYSGFSEVAEKRIKLLNNSDERLQNNRAKDRKDVWSSIQGQWPKKTLKELFSDSDTEAAASPPHPAPDEGAVEESLQTVAEEESCSPIMELEKPLPASVDNKPIEEKPLEVSDRKTEFPSSGSNSVLNTPPTTPESPSSVTITEASQQQSSVTVSVPLPPNQEEVRSIKSETDSTIEVDSVVGELQDLQSEGNSSPAGFDASVSSSSSNQPEPDNPEKACTGQKRVKDTQGVGSSSKKQKRSHKATVVNNKKKGKGTNSSDSEELSAGESVTKTQTIKSVPTGMKTHNSKSPARVQSPGKGGRNGDKDPDLKEPSNRLPKVYKWSFQTSDLENMTSAERISILQEKLQEIRKHYLSLKSEVASIDRRRKRLKKKERESAATSSSSSSPSSSSITAAVMLTLAEPSMSSASQNGMSVECR

These are yes or no findings as the source states them, for the method shown. In cells and extracts the contact can be indirect. A yes stands for co-enrichment or nearness to the bait. Other partners may have been found. For part of these data: A no says only that the protein was not detected with the bait.

The first assay deals with TGFB-Induced Homeobox Factor 2 (TGIF2), longer isoform with a retained intron (TGIF2IR), FLAG-tagged (UniProt Q8C0Y1). The assay is described as follows: affinity purification with mass spectrometry.
For BANF1 (from UniProt O54962 1-89), the binding result is “binds”.
As for HDAC1 (from UniProt O09106 1-482), the binding result is on record as “binds”.
Still for that read-out and setting: in the case of HDAC2 (from UniProt P70288 1-488) it was “binds”; in that of PARP1 (from UniProt P11103 1-1013), “binds”.
On to RPA1 (from UniProt Q8VEE4 1-623), for which the binding entry was “binds”.
On the same count and under the same terms, under RPA2 (from UniProt Q62193 1-270) stands “binds”; under RPA3 (from UniProt Q9CQ71 1-121), “binds”.

For another assay the target is unchanged. Briefly: affinity purification with mass spectrometry. The source holds these as a separate data set.
B1: the binding result was “binds”.

In another assay the target is TGIF2IR with a point mutation within the SIN3A-interacting domain (A210V), TGIF2IRmut (UniProt Q8C0Y1). The assay is described as follows: affinity purification with mass spectrometry.
Consider B1, for which the binding result is recorded as “no binding”.
